In this data set the target is T1, Bright (177-601) (UniProt Q62431).
T1 sequence (looked up): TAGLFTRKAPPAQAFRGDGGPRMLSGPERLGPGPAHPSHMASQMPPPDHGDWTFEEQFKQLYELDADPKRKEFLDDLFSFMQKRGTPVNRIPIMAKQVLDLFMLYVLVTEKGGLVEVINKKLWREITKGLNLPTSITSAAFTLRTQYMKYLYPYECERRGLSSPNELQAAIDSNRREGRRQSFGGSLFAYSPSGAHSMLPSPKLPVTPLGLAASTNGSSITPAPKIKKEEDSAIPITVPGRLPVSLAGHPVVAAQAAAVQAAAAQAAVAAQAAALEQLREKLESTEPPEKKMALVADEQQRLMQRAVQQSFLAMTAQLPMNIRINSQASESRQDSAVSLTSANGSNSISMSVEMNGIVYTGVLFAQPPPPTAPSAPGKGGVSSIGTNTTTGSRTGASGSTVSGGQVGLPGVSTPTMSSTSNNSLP
The data set is described as follows: competition with a labelled probe. Conditions: ~150-fold molar excess of unlabelled P2 oligo against 5' Emu MAR probe; EMSA: ~2 ug nuclear extract or ~20 ng Bright (177-601), ~80,000 cpm probe, 20 min at room temperature, 4% polyacrylamide gel; salt and pH not given (refs 21, 66); recombinant protein; residues 177-601; protein details: N-terminal 6xHis. (A gel shift assay detects complexes by their altered migration in electrophoresis.)

For at least one entry, the source does not settle the construct or the ends of the probe. At least one verdict was read from the data and is not stated in words by the source. Where a protein sequence is shown, tags need not be part of it.

“CTTTTAACAATAATAAATTAAGTTTAAAATATTTTT (double strand) [P2 site duplex oligonucleotide (wild type)]”: the binding result was “binds”.

For the origin of these results see article PMC1852116.
